# Some of the results follow. These are further read-outs of the screen, such as a control signal, another cell line or another target. No call is given for them. The list favours compounds with an active or inconclusive main result. Words in brackets tell the shape of the fitted curve; partial curves, single points and poor fits give uncertain potencies.
# Assay: IkB Signaling
# Conditions: ABC-DLBCL IkBa-CBG/CBR dual luciferase ratio (green luciferase fused to IkBa over red control in OCI-Ly3 lymphoma cells), 4 h; measured here: control luc red channel unless noted
# How it was run: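 Curves were fitted separately to fusion (green), unfused (red) and ratio luminescence, then classed by r2, magnitude and activity. Cells: OCI-Ly3, 4 h compound plus doxycycline at 37C; 10 uM MG-132 defined full response.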
row,Structure (SMILES),AC50
1,CCOc1ccc(OCC)c(NC(=O)C2CCCN(S(=O)(=O)c3ccc(C)cc3)C2)c1 (centres undefined),"25.1 µM [falling, single point]"
2,O=C(O)CCC(=O)c1ccc(-c2ccccc2)cc1,"12.6 µM [falling, partial curve]"
3,CNc1sc(C(=O)c2cccs2)c(N)c1-c1nc2ccccc2s1,"20 µM [falling, partial curve]"
4,Cc1cccc(NC(=O)COc2ccc3oc4c(c3c2)CCCC4)c1,"15.8 µM [falling, partial curve]"
5,Cn1c(CN2CCOCC2)nc2cc(NC(=O)c3ccccc3Cl)ccc21,"31.6 µM [falling, partial curve]"
6,CCCN1Cc2cccc(C(=O)Nc3ccc4c(c3)OCCO4)c2C1=O,"0.631 µM [rising, full curve]"
7,Cc1ccc(N2CC(C(=O)NCc3nnnn3-c3ccc(C)c(C)c3)CC2=O)cc1 (centres undefined),"39.8 µM [falling, single point]"
8,Cc1csc(SCC(=O)Nc2ccc(Cl)cn2)n1,"15.8 µM [falling, partial curve]"
9,CCCCOc1ccc(C(=O)Nc2ccc3c(c2)CCCN3S(=O)(=O)c2ccc(C)cc2)cc1,"6.31 µM [falling, partial curve]"
10,O=C(NCc1ccccn1)c1nn(-c2ccccc2F)nc1CO,"25.1 µM [falling, single point]"
11,CCOc1ccccc1CN1CCc2nc(Nc3ccccc3)ncc2C1,"39.8 µM [falling, single point]"
12,Fc1ccc(-n2ncc3c(N4CCN(Cc5ccccc5)CC4)ncnc32)cc1,"20 µM [falling, partial curve, poor fit]"
13,COc1cccc(CNC(=O)CSc2n[nH]c(-c3ccccc3Cl)n2)c1,"20 µM [falling, partial curve]"
14,CCc1ccc(CNC(=O)c2ccc3c(c2)nc2n3CCCCC2)cc1,"15.8 µM [falling, partial curve]"
15,COc1ccc(OC)c(CCNC(=O)CN2C(=O)COc3ccc(S(=O)(=O)N4CCCCCC4)cc32)c1,"39.8 µM [falling, single point]"
16,COc1cccc(CNC(=O)CCNS(=O)(=O)c2ccc3c(c2)CCCC(=O)N3)c1,"0.501 µM [falling, full curve]"
17,O=C(Nc1c2c(nn1-c1ccc(Cl)cc1)CS(=O)(=O)C2)c1cccc(Cl)c1,"39.8 µM [falling, single point]"
18,O=C(CSc1ccc2nnc(CCNS(=O)(=O)c3ccccc3)n2n1)Nc1ccccc1C(F)(F)F,"0.794 µM [rising, full curve, poor fit]"
19,CCc1cccc(NC(=O)CN2c3ccccc3S(=O)(=O)c3ccccc32)c1,"12.6 µM [falling, partial curve]"
20,O=C(c1ccc(F)cc1)n1nc(-c2ccc(Cl)cc2)nc1NCc1ccco1,"10 µM [falling, partial curve]"
21,COc1ccccc1NC(=O)Cn1nc(C)n2cccc2c1=O,"12.6 µM [falling, partial curve]"
22,Cc1ccc(CNC(=O)Cn2ccn(-c3cc(C)cc(C)c3)c(=O)c2=O)cc1,"39.8 µM [falling, single point]"

# Reprinted at random: two entries already listed
row,Structure (SMILES),AC50
10,O=C(NCc1ccccn1)c1nn(-c2ccccc2F)nc1CO,"25.1 µM [falling, single point]"
18,O=C(CSc1ccc2nnc(CCNS(=O)(=O)c3ccccc3)n2n1)Nc1ccccc1C(F)(F)F,"0.794 µM [rising, full curve, poor fit]"

# (continued)

row,Structure (SMILES),AC50
1,CCn1c(SCC(=O)Nc2nc(-c3ccc(C)cc3)cs2)nnc1-c1ccccc1O,"2.51 µM [falling, full curve]"
2,O=C(CSc1nc2ccccc2nc1Cc1ccccc1)N1CCCc2ccccc21,"39.8 µM [falling, single point]"
3,CCc1cc2c(=O)n(Cc3ccco3)c(SCC(=O)N3CCCc4ccccc43)nc2s1,"10 µM [falling, partial curve]"
4,CCc1ccc2occ(CC(=O)N(Cc3ccc(N(C)C)cc3)C3CCS(=O)(=O)C3)c2c1 (centres undefined),"15.8 µM [falling, partial curve]"
5,CCOC(=O)c1cccc(NC(=O)c2sc3nc[nH]c(=O)c3c2C)c1,"39.8 µM [falling, single point]"
6,Cc1oc(-c2ccc(Cl)cc2)nc1CN1CCCC(C(=O)NCc2ccco2)C1 (centres undefined),"12.6 µM [falling, partial curve]"
7,O=Nc1ccc(Nc2ccccc2)cc1,"5.01 µM [falling, partial curve]"
8,CCc1nnc(NC(=O)CSc2nc3c([nH]c4ccccc43)c(=O)n2-c2ccc(OC)cc2)s1,"1 µM [rising, full curve]"
9,CCCCn1c(NC(=O)CC)c(C#N)c2nc3ccccc3nc21,"25.1 µM [falling, single point]"
10,Cc1ccc2cc3c(N)c(C(=O)N4CCOCC4)sc3nc2c1,"12.6 µM [falling, partial curve]"
11,O=C(C1CCCCC1)N(Cc1cccnc1)c1nc2ccc(F)cc2s1,"20 µM [falling, partial curve]"
12,COc1ccc2[nH]c3c(=O)n(CCCCC(=O)N4CCCC4)c(=S)[nH]c3c2c1,"12.6 µM [falling, partial curve]"
13,COc1ccc(N2CCN(CC(=O)Nc3nnc(-c4ccccc4)s3)CC2)cc1,"15.8 µM [falling, partial curve]"
14,COc1cc(-c2nnc(COc3ccc4ccccc4c3)o2)cc(OC)c1OC,"7.94 µM [falling, full curve, poor fit]"
15,CC(=O)c1cccc(Nc2nc(-c3ccccc3Cl)nc3ccccc23)c1,"3.16 µM [falling, full curve]"
16,Cc1ccccc1Cn1c2ccccc2c2cnn(CC(=O)NCCc3ccc(Cl)cc3)c(=O)c21,"6.31 µM [falling, partial curve]"
17,Cc1ccc2[nH]c3c(=O)n(CC(=O)N4CCCC(C)C4)ncc3c2c1 (centres undefined),"39.8 µM [falling, single point]"
18,CC(CCCc1ccccc1)NC(=O)c1nn(-c2ccc(Cl)cc2)nc1CO (centres undefined),"12.6 µM [falling, partial curve]"
19,Cn1ncc(C#N)c1/N=C/N(Cc1ccccc1)Cc1ccccc1,"25.1 µM [falling, partial curve]"
20,CCOc1ccccc1NC(=O)c1cc2c(=O)[nH]c3ccccc3c2s1,"0.02 µM [falling, full curve]"
21,O=C(NC1CCCCC1)c1ccc2c(c1)N(Cc1cccc(Cl)c1)C(=O)c1ccccc1S2=O (centres undefined),"20 µM [falling, single point]"
22,CCc1ccc(-c2nc(CSCC(=O)NCc3ccc(C)cc3)c(C)o2)cc1,"15.8 µM [falling, partial curve]"

row,Structure (SMILES),AC50
1,O=C(Nc1cccnc1)c1cn(-c2ccccc2)nc1-c1cccs1,"20 µM [falling, partial curve]"
2,CC(=O)c1cc2c(cc1N/C(=N/S(=O)(=O)c1ccc(F)cc1)c1ccccc1)OCO2,"3.16 µM [rising, partial curve]"
3,O=C(Cn1ncc2c3ccccc3n(Cc3cccc(Cl)c3)c2c1=O)N1CCCCCC1,"20 µM [falling, single point]"
4,CCOc1ccc(CCNC(=O)Cn2c(C)c3cnn(-c4ccccc4)c(=O)c3c2C)cc1,"10 µM [falling, single point]"
5,CCOc1ncccc1C(=O)Nc1cccc(C(=O)Nc2cccc(S(=O)(=O)CCO)c2)c1,"3.16 µM [falling, full curve, poor fit]"
6,N#CCCn1c(SCC(=O)c2c[nH]c3ccccc23)nc2ccccc21,"3.98 µM [falling, partial curve]"
7,Cc1ccc(-n2nnnc2SCc2nnc(-c3ccccc3Br)o2)cc1,"39.8 µM [falling, single point]"
8,CCOc1ccc(CC(=O)NCc2ccc3c(c2)CCN3C(C)=O)cc1OCC,"3.98 µM [rising, partial curve]"
9,CC(C)(C)OC(=O)N1CCC(c2c(C(=O)N3CCN(c4ncccn4)CC3)cnn2-c2cccc(F)c2)CC1,"3.98 µM [falling, partial curve]"
10,Cc1ccc(C)c(S(=O)(=O)c2nnn3c2nc(N2CCCCC2)c2sccc23)c1,"7.94 µM [falling, full curve]"
11,COc1ccc(OC)c(NC(=O)Cn2cc(C(=O)c3ccc(Cl)cc3)c(=O)c3cc(OC)ccc32)c1,"20 µM [falling, partial curve]"
12,COc1cc2c(cc1OC)n(CC(=O)c1ccc(C)cc1)c(=O)n1nc(CCn3nc(C)cc3C)nc21,"39.8 µM [falling, single point]"
13,COc1ccc(NC(=O)c2ccc3c(c2)CCN3S(=O)(=O)c2ccccc2)cc1,"25.1 µM [falling, single point]"
14,Cc1cccc(-c2c3c(=O)n(C)c(=O)n(C)c3c3cccnn23)c1,"3.16 µM [rising, full curve]"
15,Cc1noc2ncnc(N3CCCC(C(=O)Nc4cccc(C(F)(F)F)c4)C3)c12 (centres undefined),"15.8 µM [falling, partial curve]"
16,CCc1ccc(NC(=O)c2ccc(F)c(S(=O)(=O)N3CCN(c4cc(C)ccc4C)CC3)c2)cc1,"10 µM [falling, partial curve]"
17,CC(C)c1ccc(NC(=O)Cn2c(=O)oc3cc(S(=O)(=O)N4CCCC4)ccc32)cc1,"12.6 µM [falling, partial curve]"
18,COc1ccc(-c2nc(S(=O)(=O)c3ccc(C)cc3)c(NCc3ccccc3)o2)cc1,"10 µM [falling, full curve, poor fit]"
19,CCc1c(C)c(C#N)c2nc3ccccc3n2c1Nc1cccc(C(F)(F)F)c1,"10 µM [falling, partial curve]"
20,O=C(NCCCN1CCN(c2ccc(F)cc2)CC1)c1ccc2nc(CCc3ccccc3)oc2c1,"20 µM [falling, partial curve]"
